Assay [1] deals with ReNCell VM. In words: neuronal differentiation score (DCX+ cell fraction vs untreated, manual image score) (score (-3 to 3)); higher = more neuronal differentiation. Conditions: 2 uM, 2 weeks.
In assay [2] the test system is ReNCell VM. Nature of the assay: dopaminergic neuron differentiation score (TH+ cell fraction vs untreated, manual image score) (score (0 to 3)); higher = more TH+ dopaminergic neuron differentiation. Conditions: 2 uM, 4 weeks, BDNF 10 ng/ml + GDNF 10 ng/ml.

Structures can show the parent of a compound that is named as a salt. The list shows a part of the results. Repeats in this data set agree poorly, so a single value says little.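 Human fetal ventral-midbrain neural progenitor line ReNCell VM, differentiated without mitogens. Images stained for doublecortin (early neurons) or tyrosine hydroxylase (dopaminergic neurons) were scored by blinded raters against untreated wells (0 = no change). Repeats and both raters were averaged, and compounds averaging 2 or higher were picked as hits for retesting.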

`COCCNC(=O)COc1ccc(OCCNC[C@H](O)COc2ccccc2)cc1` [ZD 7114 hydrochloride]: the neuronal differentiation score in the assay on ReNCell VM [1] (library: Tocriscreen) was inactive: 0. Moreover, in the assay on ReNCell VM [2] (library: Tocriscreen), the “dopaminergic neuron differentiation score” value was inactive: 0.
As to `C[C@H](CCC(=O)O)[C@H]1CC[C@H]2[C@@H]3[C@@H](O)C[C@@H]4C[C@H](O)CC[C@]4(C)[C@H]3CC[C@]12C`, the neuronal differentiation score with ReNCell VM [1] (library: Spectrum) is inactive: 0. Besides, in the assay on ReNCell VM [2] (library: Spectrum), the “dopaminergic neuron differentiation score” value was inactive: 0.
In the case of `CC1(C)S[C@@H]2[C@H](NC(=O)[C@H](NC(=O)N3CCNC3=O)c3ccccc3)C(=O)N2[C@H]1C(=O)O` [Azlocillin sodium salt], the neuronal differentiation score with ReNCell VM [1] (library: Prestwick) was inactive: 0. For the same compound, in the assay on ReNCell VM [2] (library: Prestwick), the “dopaminergic neuron differentiation score” value is inactive: 0.
Regarding `O=c1c(O)c(-c2ccccc2)oc2cc(O)ccc12`, the neuronal differentiation score in the assay on ReNCell VM [1] (library: Spectrum) is inactive: 0. Further, the “dopaminergic neuron differentiation score” value in the assay on ReNCell VM [2] (library: Spectrum) was inactive: 0.
As to `CO[C@@H]1[C@H](O)[C@@H](CO)O[C@H]1n1cnc2c(NC3CCCCC3)ncnc21`, the neuronal differentiation score in the assay on ReNCell VM [1] (library: Tocriscreen) is inactive: -3. Also, the “dopaminergic neuron differentiation score” value in the assay on ReNCell VM [2] (library: Tocriscreen) was inactive: 0.
As for `CC[n+]1c(/C=C/C=C2/N(C)c3ccccc3C2(C)C)sc2ccccc21`, the neuronal differentiation score in the assay with ReNCell VM [1] (library: LOPAC) is inactive: 0. Further, in the assay on ReNCell VM [2] (library: LOPAC), the “dopaminergic neuron differentiation score” value is inactive: 0.
Take `Nc1cc(-c2ccncc2)c[nH]c1=O` [Amrinone]: the neuronal differentiation score in the assay on ReNCell VM [1] (library: Prestwick) is inactive: 1. In addition, in the assay with ReNCell VM [2] (library: Prestwick), the “dopaminergic neuron differentiation score” value was inactive: 0.
Take `Cc1ccc2c(=O)c3ccccc3n(CCCN)c2c1C`: in the assay with ReNCell VM [1] (library: Tocriscreen), the neuronal differentiation score is inactive: 0. In the assay with ReNCell VM [2] (library: Tocriscreen), the “dopaminergic neuron differentiation score” value is inactive: 0.
With `Nc1ccc(S(=O)(=O)Nc2ccc(Cl)nn2)cc1` [Sulfachloropyridazine], in the assay with ReNCell VM [1] (library: Prestwick), the neuronal differentiation score is inactive: 0. The “dopaminergic neuron differentiation score” value in the assay on ReNCell VM [2] (library: Prestwick) is inactive: 0.
Take `CNc1ncnc2c1ncn2[C@H]1C[C@H](OP(=O)(O)O)[C@@H](COP(=O)(O)O)O1`: the neuronal differentiation score with ReNCell VM [1] (library: LOPAC) is inactive: 0. In addition, the “dopaminergic neuron differentiation score” value in the assay on ReNCell VM [2] (library: LOPAC) was inactive: 0.
Regarding `C=C1CCC2C(CC2(C)C)C(=C)CC/C1=N/O` (stereo unspecified), the neuronal differentiation score in the assay on ReNCell VM [1] (library: Spectrum) was inactive: 0. The “dopaminergic neuron differentiation score” value with ReNCell VM [2] (library: Spectrum) was inactive: 0.
In the case of `NC(=O)NC1NC(=O)NC1=O` (stereo unspecified) [Allantoin], the neuronal differentiation score in the assay with ReNCell VM [1] (library: Prestwick) was inactive: 0. Moreover, in the assay with ReNCell VM [2] (library: Prestwick), the “dopaminergic neuron differentiation score” value is inactive: 0.
With `CCn1cc(C(=O)O)c(=O)c2cc(F)c(N3CCNCC3)nc21`, the neuronal differentiation score in the assay on ReNCell VM [1] (library: Spectrum) is inactive: 0. Also, the “dopaminergic neuron differentiation score” value with ReNCell VM [2] (library: Spectrum) was inactive: 0.
Take `CC(Oc1ccccc1)C(=O)N[C@@H]1C(=O)N2[C@@H]1SC(C)(C)[C@@H]2C(=O)O` (stereo partly specified) [Phenethicillin potassium salt]: the neuronal differentiation score in the assay with ReNCell VM [1] (library: Prestwick) was inactive: 0. In addition, the “dopaminergic neuron differentiation score” value in the assay on ReNCell VM [2] (library: Prestwick) was inactive: 0.
Regarding `COc1cc(C=CC(=O)O)cc(OC)c1O`, the neuronal differentiation score in the assay on ReNCell VM [1] (library: Spectrum) is inactive: 0. For the same compound, the “dopaminergic neuron differentiation score” value in the assay on ReNCell VM [2] (library: Spectrum) is inactive: 0.
In the case of `Cc1nccnc1N1CCCCC1`, the neuronal differentiation score in the assay with ReNCell VM [1] (library: Spectrum) is inactive: 0. The “dopaminergic neuron differentiation score” value in the assay on ReNCell VM [2] (library: Spectrum) was inactive: 0.
`CNCC[C@H](Oc1cccc2ccccc12)c1cccs1`: the neuronal differentiation score in the assay on ReNCell VM [1] (library: Spectrum) was inactive: 0. For the same compound, the “dopaminergic neuron differentiation score” value in the assay on ReNCell VM [2] (library: Spectrum) was inactive: 0.
On to `CC(CN(C)C)CN1c2ccccc2CCc2ccccc21` (stereo unspecified), for which, in the assay on ReNCell VM [1] (library: Spectrum), the neuronal differentiation score is inactive: 0. Further, the “dopaminergic neuron differentiation score” value with ReNCell VM [2] (library: Spectrum) was inactive: 0.
On to `COc1ccc([C@@H]2CC(=O)c3c(O)cc(O)cc3O2)cc1O` [Hesperetin], for which the neuronal differentiation score in the assay with ReNCell VM [1] (library: Phytochemical) was inactive: 0. The “dopaminergic neuron differentiation score” value with ReNCell VM [2] (library: Phytochemical) was inactive: 0.
As to `[O-][S+](c1ccccc1)c1ccc2nnnn2n1` (stereo unspecified), in the assay on ReNCell VM [1] (library: Tocriscreen), the neuronal differentiation score was inactive: 0. Also, in the assay with ReNCell VM [2] (library: Tocriscreen), the “dopaminergic neuron differentiation score” value is inactive: 0.
`C[C@@H]1CC[C@H]2C(C)(C)[C@H]3C[C@@]12CC[C@@]3(C)O`: in the assay on ReNCell VM [1] (library: Spectrum), the neuronal differentiation score is inactive: 0. The “dopaminergic neuron differentiation score” value in the assay on ReNCell VM [2] (library: Spectrum) was inactive: 0.
Take `CN[C@H](CC(=O)O)C(=O)O`: the neuronal differentiation score with ReNCell VM [1] (library: Spectrum) was inactive: 0. Besides, the “dopaminergic neuron differentiation score” value in the assay on ReNCell VM [2] (library: Spectrum) was inactive: 0.
Regarding `O=C(O)C(CO)c1ccccc1` (stereo unspecified) [Tropic acid], the neuronal differentiation score with ReNCell VM [1] (library: Phytochemical) was inactive: 0. Moreover, in the assay on ReNCell VM [2] (library: Phytochemical), the “dopaminergic neuron differentiation score” value is inactive: 0.
As for `Cc1c(Cl)cccc1Nc1ccccc1C(=O)O`, the neuronal differentiation score in the assay on ReNCell VM [1] (library: Spectrum) was inactive: 0. Also, the “dopaminergic neuron differentiation score” value with ReNCell VM [2] (library: Spectrum) is inactive: 0.
As to `C=C1c2c(Cl)ccc(O)c2C(=O)C2=C(O)[C@]3(O)C(=O)C(C(N)=O)=C(O)[C@@H](N(C)C)[C@@H]3[C@@H](O)[C@H]12.O=C(O)c1cc(S(=O)(=O)O)ccc1O` [Meclocycline sulfosalicylate], the neuronal differentiation score in the assay on ReNCell VM [1] (library: Prestwick) is inactive: 0. Besides, the “dopaminergic neuron differentiation score” value with ReNCell VM [2] (library: Prestwick) was inactive: 0.
Consider `C[N+](C)(C)CCO.[Br-]` [Choline bromide], for which, in the assay with ReNCell VM [1] (library: LOPAC), the neuronal differentiation score was inactive: -1. The “dopaminergic neuron differentiation score” value with ReNCell VM [2] (library: LOPAC) is inactive: 0.
Consider `CS(=O)(=O)OCCCCOS(C)(=O)=O`, for which the neuronal differentiation score in the assay with ReNCell VM [1] (library: Spectrum) was inactive: 0. Besides, the “dopaminergic neuron differentiation score” value in the assay on ReNCell VM [2] (library: Spectrum) was inactive: 0.
Turning to `COc1cc2nc(N(C)CCCNC(=O)C3CCCO3)nc(N)c2cc1OC` (stereo unspecified) [Alfuzosin hydrochloride], the neuronal differentiation score with ReNCell VM [1] (library: Prestwick) is inactive: 0. Further, the “dopaminergic neuron differentiation score” value in the assay with ReNCell VM [2] (library: Prestwick) was inactive: 0.
For `COc1ccc2nc3cc(Cl)ccc3c(Nc3cc(CN4CCCC4)c(O)c(CN4CCCC4)c3)c2n1`, the neuronal differentiation score in the assay on ReNCell VM [1] (library: Spectrum) is inactive: 0. Also, the “dopaminergic neuron differentiation score” value with ReNCell VM [2] (library: Spectrum) is inactive: 0.
Consider `CC(N)(Cc1ccc(O)cc1)C(=O)O` (racemic) [DL-alpha-Methyl-p-tyrosine], for which the neuronal differentiation score in the assay on ReNCell VM [1] (library: LOPAC) is inactive: 0. Also, in the assay with ReNCell VM [2] (library: LOPAC), the “dopaminergic neuron differentiation score” value is inactive: 0.
As to `CC(=O)O[C@]1(C(C)=O)CC[C@H]2[C@@H]3C=C(C)C4=CC(=O)CC[C@]4(C)[C@H]3CC[C@@]21C`, the neuronal differentiation score in the assay with ReNCell VM [1] (library: Spectrum) is inactive: 0. Further, the “dopaminergic neuron differentiation score” value in the assay with ReNCell VM [2] (library: Spectrum) is inactive: 0.
As for `C[C@H](CCC(=O)O)[C@H]1CC[C@H]2[C@@H]3[C@H](O)C[C@@H]4C[C@H](O)CC[C@]4(C)[C@H]3CC[C@]12C`, the neuronal differentiation score in the assay on ReNCell VM [1] (library: Spectrum) is inactive: 1. The “dopaminergic neuron differentiation score” value in the assay with ReNCell VM [2] (library: Spectrum) is inactive: 0.
On to `COc1ccc(CC2c3cc(OC)c(OC)cc3CC[N+]2(C)CCC(=O)OCCCCCOC(=O)CC[N+]2(C)CCc3cc(OC)c(OC)cc3C2Cc2ccc(OC)c(OC)c2)cc1OC` (stereo unspecified) [Atracurium besylate], for which the neuronal differentiation score in the assay with ReNCell VM [1] (library: Prestwick) is inactive: 0. The “dopaminergic neuron differentiation score” value in the assay on ReNCell VM [2] (library: Prestwick) is inactive: 0.

Values taken from the supplement of paper PMC4635364.
